Measurements published in PubChem BioAssay AID1259415 (National Center for Advancing Translational Sciences (NCATS), 2018).
In all, about 410,000 compounds went through this assay and about 18,000 (4.4%) were called active. Inconclusive means that the source gave no clear call. Such entries were picked first, then a sample of the others. Rule as the data show it: active = activity change below about -60%; inconclusive = no clear call, values can overlap the other calls; inactive = above about -39%.

Assay: qHTS Assay for inhibitors of the human cytomegalovirus (HCMV)
Conditions: HFF cells, HCMV-luciferase reporter, 72 h; at 57.5 µM; active compounds read low
How it was run: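 Cell-based, HFFs, 1000 cells/well, 16 h 37C; cpds in DMSO + HCMV-luc, MOI 1 PFU/cell; 72 h 37C; OneGlo luminescence after 5 min RT; norm. to buffer vs Salinomycin 10uM.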
% is scaled to controls: 0 for no effect and ±100 for the full control effect.

SMILES	activity change, negative = inhibition
CC(=O)c1ccc(OCCCC(=O)N2CCN(S(=O)(=O)c3ccc(C(C)C)cc3)CC2)cc1	inconclusive: -52.9%
Oc1ccc(-c2nc(-c3ccccc3)c(-c3ccc(Br)cc3)[nH]2)cc1	active: -63.3%
COc1cc(NC(=O)CN2c3ccccc3CC2C)cc(OC)c1OC (configuration not stated)	inactive: -3%
Clc1ccc(COn2c(-c3ccc(Cl)cc3Cl)nc3ncccc32)cc1	inconclusive: -44.2%
O=C(NNc1nc(-c2ccc(F)cc2)cs1)c1ccccc1	active: -98.6%
C=CCNC(=S)N/N=C/c1cn(-c2ccccc2)nc1-c1ccc(OC)cc1	inconclusive: -58.6%
Cc1cccc(CNC(=O)C2CCC(=O)N(CC3CCCCC3)C2)c1 (configuration not stated)	inconclusive: -50.6%
CCC(=O)Nc1nc2ccccc2n1Cc1ccccc1Cl	inconclusive: -49.1%
CC(C)=C(NC(=O)c1ccccc1)C(=O)NCCc1nc2ccccc2[nH]1	inactive: -28.3%
CC(=O)NC(c1ccc(F)c(F)c1)c1nc(-c2cccc(F)c2)cs1 (configuration not stated)	inconclusive: -44.3%
CCN1CCN(C(c2ccccc2OC)c2nnnn2C2CCCCC2)CC1 (configuration not stated)	inconclusive: -42.5%
O=C(c1ccc(-c2cccc([N+](=O)[O-])c2)o1)N1CCN(c2ccc([N+](=O)[O-])cc2)CC1	active: -60.7%
Cc1ccc(Cn2c(SCC(=O)NCc3ccccc3Cl)nc3ccsc3c2=O)cc1	inactive: -35.3%
Nc1nc(-c2cc(-c3ccccc3)no2)cs1	inactive: 57.9%
COc1ccccc1C(=O)Nc1ccc(S(=O)(=O)N2CCN(C)CC2)cc1	inactive: 96.9%
O=C(O)C1=CCCN(CCON=C(c2ccccc2)c2ccccc2)C1	inconclusive: -42.3%
COc1ccc([C@H]2C[C@H](n3cc(C4CC4)nn3)[C@@H](O)CN2CC2CCCCC2)cc1	inconclusive: -51%
COc1ccc(C(=O)CCC(=O)NCCc2c[nH]c3ccccc23)cc1	active: -104%
COc1ccc(C(=O)CN2C(=O)c3ccccc3S2(=O)=O)cc1	active: -92.2%
CCOC(=O)c1ccc(N2C(=O)CC(N3CCN(C(=O)c4ccccc4)CC3)C2=O)cc1 (configuration not stated)	inconclusive: -54.1%
Cc1cc(C(=O)NC2CCCc3c2cnn3-c2ccc(C)c(C)c2)n(C)n1 (configuration not stated)	active: -99.4%
COc1cc(C2c3cc4c(cc3CC3COC(=O)N32)OCO4)cc(OC)c1OC (configuration not stated)	active: -88.3%

SMILES	activity change, negative = inhibition
C=CCNc1nc(C(=O)OCC(=O)c2ccc(OC)cc2OC)cs1	inconclusive: -40.5%
Cc1cccc(N2CCN(C(=O)c3[nH]c(C(F)(F)F)nc3-c3ccccc3)CC2)c1C	active: -87.2%
O=c1oc2ccc3ccccc3c2cc1-c1nnc(-c2ccccc2)o1	inconclusive: -41.9%
COc1cc2ccccc2cc1C(=O)NC1CCCC1	inconclusive: -58.4%
CC(=O)NC(NC(C)=O)c1cccc(OCc2ccccc2)c1	active: -68%
Cc1ccccc1N(C(=O)c1snc(C(N)=O)c1N)C(C(=O)NCC1CCCO1)c1ccc(F)cc1 (configuration not stated)	inconclusive: -52.5%
CCOc1ccc(NS(=O)(=O)c2ccc3c(c2)N(C(C)=O)CCS3)cc1	active: -64.8%
CNC(=O)c1nc(C)n(-c2cc(Cl)ccc2Cl)n1	inactive: -2.62%
Cc1ccc(S(=O)(=O)N(C)C)cc1-n1c(SCC(=O)Nc2ccc(F)c(F)c2F)nc2ccccc2c1=O	inconclusive: -54.3%
COC(=O)Cn1c(N2CCCC2)nc2c1c(=O)n(C)c(=O)n2C	inactive: 3.69%
Cc1noc(C)c1C(=O)OCC(=O)Nc1c(F)cccc1F	inactive: 71.6%
CCC(=O)Nc1nnc(SCC(=O)NC2CCCC2)s1	inactive: 63.9%
CC1Cc2ccccc2N1C(=O)CSc1nc2c(c(=O)n(C)c(=O)n2C)n1Cc1ccccc1 (configuration not stated)	active: -96.8%
NC(=O)CC(NC(=O)c1ccccc1)c1ccc(N2CCCCCC2)c([N+](=O)[O-])c1 (configuration not stated)	inactive: -22.1%
Cc1ccc(NS(=O)(=O)c2cc(NC(=O)c3cc4c(s3)CCCC4)ccc2C)c(C)c1	inconclusive: -46.6%
O=C1c2cccc(NCCNCCO)c2C(=O)c2cccc(NCCNCCO)c21	active: -99.5%
COc1ccccc1C1=NN(C(=S)Nc2ccccc2)C(c2ccco2)C1 (configuration not stated)	inactive: 12.5%
CCc1ccccc1NC(=O)C1CCN(c2cnccn2)CC1	inconclusive: -50.1%
CC(=O)c1nn(-c2cccc(Br)c2)cc1C(=O)c1ccccc1	inconclusive: -46.2%
COc1ccc(C(C)(O)c2nc(-c3cc(F)cc(F)c3)cs2)cc1 (configuration not stated)	active: -96%
Cc1ccc(Cl)cc1N1CCN(C(=O)CCCn2c(=O)[nH]c3ccc(Br)cc3c2=O)CC1	inconclusive: -53.7%
Cc1ccc(NC(=O)c2cc(C)nc3ccccc23)c(Br)c1	inconclusive: -44.3%

SMILES	activity change, negative = inhibition
CN1CCN(C=NC2=NN(c3cccc(C(F)(F)F)c3)CC2)CC1	inconclusive: -53.3%
O=C(C1CCC1)N1CCc2cc(S(=O)(=O)NCc3ccccn3)ccc21	inconclusive: -59.2%
COc1ccc(CCNc2cc(C)nc(N)n2)cc1OC	inconclusive: -41.1%
CCCOc1ccc(/C=C/C(=O)NC2CCCCC2)cc1	inactive: -18.5%
COc1ccc(NC(=O)C[C@H]2C(=O)N(Cc3ccccc3)C[C@@H]2C)cc1	inactive: 5.96%
CC1Cc2ccccc2N1c1nc(C2CC2)nc2c1nnn2Cc1ccccc1 (configuration not stated)	inactive: -4.17%
Cc1ccn2c(NCc3ccc4c(c3)OCO4)c(-c3ccc(O)cc3)nc2c1	inactive: 30.7%
CN(C)c1ccc(CNC(=O)c2ccc(NC(=O)N3CCCCc4ccccc43)cc2)cc1	inactive: 15.4%
O=C(NCc1cccnc1)c1ccc(COc2ccccc2Br)o1	inconclusive: -47.8%
COc1ccc(CC(N)c2csc(NC(=O)Cc3ccccc3)n2)cc1 (configuration not stated)	inconclusive: -48%
COc1ccc(OC)c(C=Cc2ccc([N+](=O)[O-])cc2)c1	inconclusive: -54.8%
CC1CCC(=O)N(CCC#N)CC1 (configuration not stated)	inconclusive: -54.5%
CCN(c1nc(N)c(C(=O)N=C(N)N)nc1Cl)C(C)C	active: -62%
COC(=O)c1c(-c2ccc(Br)cc2)csc1NC(=O)Cc1ccc(OC)c(OC)c1	inconclusive: -46.4%
O=C(NCc1ccccc1)C(Cc1ccccc1)NS(=O)(=O)c1cccc2nsnc12 (configuration not stated)	inconclusive: -40.5%
c1ccc(CN(CC2=NCCN2)c2ccccc2)cc1	inconclusive: -46.5%
COc1ccc(S(=O)(=O)N2CCCCC2)cc1NC(=O)Cn1cnc2ccccc2c1=O	inconclusive: -48.5%
Cc1ccc([N+](=O)[O-])cc1NC(=O)CSc1nncc2ccccc12	inconclusive: -54.4%
O=C(O)CSC(C(=O)Nc1ccc(Br)cc1)c1ccccc1 (configuration not stated)	inconclusive: -51.5%
O=C(CCCn1c(=S)[nH]c2ccccc2c1=O)N1CCN(c2cccc(Cl)c2)CC1	inconclusive: -45%
CC1CCCCN1C(=O)CN1C(=O)CSc2ccc(S(=O)(=O)N3CCOCC3)cc21 (configuration not stated)	inconclusive: -55%
CSCCC1NC2(C(=O)Nc3c(C)cc(Cl)cc32)[C@@H]2C(=O)N(C3CCCC3)C(=O)[C@H]12 (some centres not stated)	inactive: -6.84%

Reprinted from the listing (5 entries):
SMILES	activity change, negative = inhibition
CC1Cc2ccccc2N1c1nc(C2CC2)nc2c1nnn2Cc1ccccc1 (configuration not stated)	inactive: -4.17%
Cc1ccn2c(NCc3ccc4c(c3)OCO4)c(-c3ccc(O)cc3)nc2c1	inactive: 30.7%
CN(C)c1ccc(CNC(=O)c2ccc(NC(=O)N3CCCCc4ccccc43)cc2)cc1	inactive: 15.4%
O=C(NCc1cccnc1)c1ccc(COc2ccccc2Br)o1	inconclusive: -47.8%
COc1ccc(CC(N)c2csc(NC(=O)Cc3ccccc3)n2)cc1 (configuration not stated)	inconclusive: -48%

Additional structures

SMILES	activity change, negative = inhibition
CCOC(=O)C1(Cc2cccc(OC)c2)CCN(Cc2cccc(OCC)c2O)CC1	inconclusive: -52.3%
COc1ccc2c(c1)cc(C(=O)N[C@@H](CCSC)C(=O)N1CCC(C(=O)O)CC1)n2C	inactive: 57.9%
O=C(COC(=O)c1cccc(S(=O)(=O)N2CCN(c3ccc(F)cc3)CC2)c1)NCC1CCCO1 (configuration not stated)	inconclusive: -45.7%
Cc1cc(C)c(S(=O)(=O)Nc2ccc(N3CCOCC3)cc2)c(C)c1	inconclusive: -49%
O=C1CNC(=S)N1Cc1ccccc1	inconclusive: -52.3%
COc1ccc(OC)c(Nc2ncnc3c2nc2n3CCCC2)c1	inconclusive: -55.6%
CN(c1ccc(C(=O)N2CCOCC2)cc1)S(=O)(=O)c1cccs1	inconclusive: -55.1%
COCCCn1c(=N)c(C(=O)NCc2cccnc2)cc2c(=O)n3cc(C)ccc3nc21	inactive: 9.28%
CCCC(CCC)C(=O)Nc1ccc2c(c1)N(C(=O)CN1CCN(C)CC1)c1ccccc1CC2	inactive: -16.9%
CCN(CC(=O)N1CCN(Cc2ccccc2)CC1)S(=O)(=O)c1ccc(F)cc1	inconclusive: -40.5%
COC(=O)c1ccc2nc(Nc3nc4c(F)cc(F)cc4s3)sc2c1	active: -70.4%
COc1ccc(S(=O)(=O)N2CCCCC2)cc1NC(=O)C1CC1(Cl)Cl (configuration not stated)	inconclusive: -42.6%
O=C(NC1CCCCC1)C(c1ccccc1F)N(Cc1ccco1)C(=O)c1ccccn1 (configuration not stated)	inconclusive: -49.4%
Cc1cc(Cl)ccc1OC(C)C(=O)NN1C(=O)c2ccccc2C1=O (configuration not stated)	inconclusive: -59.2%
COc1ccc(C(=O)Nc2ccc(Cl)cc2C(=O)NCc2ccco2)cc1	inactive: 2.94%
CCOC(=O)Cn1c(C(F)(F)F)nc2nc(Cl)c(Cl)nc21	active: -98.2%
Cc1ccc(OCC(=O)Nc2ccc(NC(=O)c3cccs3)cc2)c(C)c1	active: -90.8%
COc1ccc(CNCC(O)COc2ccc(C(C)(C)c3ccccc3)cc2)cc1 (configuration not stated)	inconclusive: -43.1%
Cc1cccc(OCC(=O)N/N=C/C=C/c2ccco2)c1	inconclusive: -48.4%
O=C(Nc1ccc(Cl)c(Cl)c1)Nc1ccc(N2CCCC2)c(S(=O)(=O)Nc2ccccc2Cl)c1	active: -99%
Cc1cc(CC(=O)O)c2oc(-c3ccoc3)cc(=O)c2c1	inactive: -1.54%
